Measured values taken from patent publication US20200383329A1, “DIAMINOTRIAZINE COMPOUNDS” (BASF SE, priority 2016, published 2020).
Some of these results come from one statement about several compounds together.

What was measured:
Assay in all cases: greenhouse pre-emergence herbicidal test
Type in all cases: in vivo
ABUTH = conditions: scale from 0 to 100
ALOMY = conditions: scale from 0 to 100
AMARE = conditions: scale from 0 to 100
ECHCG = conditions: 0.125 kg/ha, scale from 0 to 100
SETFA = conditions: 0.125 kg/ha, scale from 0 to 100

For `CC(C)(CO)c1nc(N)nc(Nc2c(F)c(F)cc(F)c2F)n1` [Compound 1, 2-[4-amino-6-(2,3,5,6-tetrafluoroanilino)-1,3,5-triazin-2-yl]-2-methyl-propan-1-ol], the herbicidal activity (ABUTH; 0.125 kg/ha) was “very good (a very good herbicidal activity is given at values of at least 85)”, the herbicidal activity (ABUTH; 0.250 kg/ha) was “very good (a very good herbicidal activity is given at values of at least 85)” and the herbicidal activity (ALOMY; 0.125 kg/ha) was “very good (a very good herbicidal activity is given at values of at least 85)”. For the same compound, the herbicidal activity (ALOMY; 0.250 kg/ha) was “very good (a very good herbicidal activity is given at values of at least 85)”, the herbicidal activity (AMARE; 0.125 kg/ha, AMARE (printed AM ARE)) was “very good (a very good herbicidal activity is given at values of at least 85)” and the herbicidal activity (AMARE; 0.250 kg/ha, AMARE) was “very good (a very good herbicidal activity is given at values of at least 85)”. For the same compound, the herbicidal activity (ECHCG) was “very good (a very good herbicidal activity is given at values of at least 85)” and the herbicidal activity (SETFA) was “very good (a very good herbicidal activity is given at values of at least 85)”.
`Nc1nc(Nc2c(F)c(F)cc(F)c2F)nc(C(F)CO)n1` (centres unmarked) [Compound 2, 2-[4-amino-6-(2,3,5,6-tetrafluoroanilino)-1,3,5-triazin-2-yl]-2-fluoro-ethanol] was tested, and the herbicidal activity (ABUTH; 0.250 kg/ha) was “very good (a very good herbicidal activity is given at values of at least 85)”, the herbicidal activity (ALOMY; 0.250 kg/ha) was “very good (a very good herbicidal activity is given at values of at least 85)” and the herbicidal activity (AMARE; 0.250 kg/ha, AMARE) was “very good (a very good herbicidal activity is given at values of at least 85)”.
